# Assay results published in publication PMC9288509.
# Sequences of proteins named here, by UniProt entry; tags and fusion partners are left off.
# UniProt P56959: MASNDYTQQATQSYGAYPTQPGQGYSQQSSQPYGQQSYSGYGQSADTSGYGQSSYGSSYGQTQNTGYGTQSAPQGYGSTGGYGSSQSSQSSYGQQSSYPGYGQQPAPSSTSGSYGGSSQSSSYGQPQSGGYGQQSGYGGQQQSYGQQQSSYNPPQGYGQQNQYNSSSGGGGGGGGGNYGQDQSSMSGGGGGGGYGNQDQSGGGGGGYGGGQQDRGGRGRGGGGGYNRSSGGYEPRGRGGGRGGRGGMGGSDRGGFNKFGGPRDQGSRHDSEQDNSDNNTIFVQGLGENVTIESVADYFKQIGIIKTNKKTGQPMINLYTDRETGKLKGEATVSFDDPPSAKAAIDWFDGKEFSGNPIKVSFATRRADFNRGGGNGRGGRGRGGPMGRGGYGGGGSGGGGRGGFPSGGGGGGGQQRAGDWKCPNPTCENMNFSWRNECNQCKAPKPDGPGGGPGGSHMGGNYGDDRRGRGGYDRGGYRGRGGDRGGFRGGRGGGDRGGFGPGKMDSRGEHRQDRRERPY
# UniProt P97855: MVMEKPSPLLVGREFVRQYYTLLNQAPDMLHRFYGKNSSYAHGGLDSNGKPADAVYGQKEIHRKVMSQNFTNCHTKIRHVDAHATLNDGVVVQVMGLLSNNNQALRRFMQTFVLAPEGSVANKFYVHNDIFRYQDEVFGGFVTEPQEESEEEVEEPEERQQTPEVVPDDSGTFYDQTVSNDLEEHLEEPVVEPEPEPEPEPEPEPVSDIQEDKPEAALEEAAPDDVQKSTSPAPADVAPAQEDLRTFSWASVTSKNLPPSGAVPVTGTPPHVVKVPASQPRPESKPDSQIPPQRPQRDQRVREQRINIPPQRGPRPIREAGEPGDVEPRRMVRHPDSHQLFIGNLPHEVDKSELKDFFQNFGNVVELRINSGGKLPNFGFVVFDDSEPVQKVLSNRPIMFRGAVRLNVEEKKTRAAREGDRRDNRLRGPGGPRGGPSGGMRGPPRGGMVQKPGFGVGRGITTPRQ
# Results are given in words; binding and its absence hold for the method and conditions named. In cells and extracts the contact can be indirect. Some results given as binding are weak or reduced against the parent protein; the word gives no strength.
# What was measured:
# [1] = biological target: FUS, mouse (mouse (endogenous in primary mouse fibroblasts)) (UniProt P56959); assay: co-IP; cytoplasmic and nuclear fractions (NE-PER) of primary mouse fibroblasts; lysates incubated with anti-FUS or anti-G3BP1 antibody overnight at 4 °C, protein G agarose 2 h at 4 °C; blotted with anti-LRSAM1; IgG as negative control
# [2] = biological target: G3BP1, mouse (mouse (endogenous in primary mouse fibroblasts)) (UniProt P97855); assay: as above
binding [1],binding [2],Binder
binds,binds,"LRSAM1 (leucine rich repeat and sterile alpha motif 1), wild type, mouse (protein, UniProt Q80ZI6 1-727) MPLFFRKRKPSEEARKRLEYQMCLAKEAGADDILDISKCELSEIPFGAFATCKVLQKKVLIVHTNHLTSLLPKSCSLLSLVTIKVLDLHENQLTALPDDMGQLTVLQVLNVERNQLTHLPRSIGNLLQLQTLNVKDNKLKELPDTLGELRSLRTLDISENEIQRLPQMLAHVRTLETLSLNALAMVYPPPEVCGAGTAAVQQFLCKESGLDYYPPSQYLLPVLEQDGAENTQDSPDGPASRFSREEAEWQNRFSDYEKRKEQKMLEKLEFERRLDLGQREHAELLQQSHSHKDEILQTVKQEQTRLEQDLSERQRCLDAERQQLQEQLKQTEQSIASRIQRLLQDNQRQKKSSEILKSLENERIRMEQLMSITQEETENLRQREIAAAMQQMLTESCKSRLIQMAYESQRQSLAQQACSSMAEMDKRFQQILSWQQMDQNKAISQILQESVMQKAAFEALQVKKDLMHRQIRNQIRLIETELLQLTQLELKRKSLDTETLQEMVSEQRWALSNLLQQLLKEKKQREEELHGILAELEAKSETKQENYWLIQYQRLLNQKPLSLKLQEEGMERRLVALLVELSAEHYLPLFAHHRISLDMLSRMSPGDLAKVGVSEAGLQHEILRRAQDLLAVPRVQPELKPLENEVLGALEPPTAPRELQESVRPSAPPAELDMPTSECVVCLEREAQMVFLTCGHVCCCQQCCQPLRTCPLCRQEISQRLRIYHSS"
binds,binds,"LRSAM1 C698R, mouse (knock-in mutant) (protein, UniProt Q80ZI6 1-727) MPLFFRKRKPSEEARKRLEYQMCLAKEAGADDILDISKCELSEIPFGAFATCKVLQKKVLIVHTNHLTSLLPKSCSLLSLVTIKVLDLHENQLTALPDDMGQLTVLQVLNVERNQLTHLPRSIGNLLQLQTLNVKDNKLKELPDTLGELRSLRTLDISENEIQRLPQMLAHVRTLETLSLNALAMVYPPPEVCGAGTAAVQQFLCKESGLDYYPPSQYLLPVLEQDGAENTQDSPDGPASRFSREEAEWQNRFSDYEKRKEQKMLEKLEFERRLDLGQREHAELLQQSHSHKDEILQTVKQEQTRLEQDLSERQRCLDAERQQLQEQLKQTEQSIASRIQRLLQDNQRQKKSSEILKSLENERIRMEQLMSITQEETENLRQREIAAAMQQMLTESCKSRLIQMAYESQRQSLAQQACSSMAEMDKRFQQILSWQQMDQNKAISQILQESVMQKAAFEALQVKKDLMHRQIRNQIRLIETELLQLTQLELKRKSLDTETLQEMVSEQRWALSNLLQQLLKEKKQREEELHGILAELEAKSETKQENYWLIQYQRLLNQKPLSLKLQEEGMERRLVALLVELSAEHYLPLFAHHRISLDMLSRMSPGDLAKVGVSEAGLQHEILRRAQDLLAVPRVQPELKPLENEVLGALEPPTAPRELQESVRPSAPPAELDMPTSECVVCLEREAQMVFLTCGHVRCCQQCCQPLRTCPLCRQEISQRLRIYHSS"
